Assay [1] concerns the target Sgo2N2 fragment (aa1-206) of Sgo2 (S. pombe) (UniProt O13734). In words: two-hybrid; Sgo2N2 fragment (aa1-206) tested for dimerization; fusion domains, strain and reporter not told in the text shown.
Assay [2] concerns the target Sgo2N2 fragment (aa1-206) of Sgo2 with L63P (S. pombe) (UniProt O13734). The assay is described as above.

No constants are given. Whether binding was seen depends on the method and setting. Some entries that bind do so weakly or less than the wild type.

B1: Sgo2N2 fragment (aa1-206) of Sgo2 (domain or fragment, UniProt O13734 1-206)
chain: MSKASLSPNVEDLKKKQIRQYKEIIRISKAQSIRIKELQLENERLLSENIDLRTTAINLEEQLETVQNENEENKTKLAALLNRFHEETDNFLSKLSLCQQEIQDTFKPVEANLAYDVDTDSEDLDEESVVKDTEEIIEQAQHDVSLRNLSGIEDENIIDDGETAINEQKKREANVFSDTQSAPQLKSGKALPADFENPYNLSNSKP
B1: the binding result in assay [1] is recorded as “binds”.

B2: Sgo2N2 fragment (aa1-206) of Sgo2 with L63P (domain or fragment, UniProt O13734 1-206)
chain: MSKASLSPNVEDLKKKQIRQYKEIIRISKAQSIRIKELQLENERLLSENIDLRTTAINLEEQPETVQNENEENKTKLAALLNRFHEETDNFLSKLSLCQQEIQDTFKPVEANLAYDVDTDSEDLDEESVVKDTEEIIEQAQHDVSLRNLSGIEDENIIDDGETAINEQKKREANVFSDTQSAPQLKSGKALPADFENPYNLSNSKP
Take B2: in assay [2], the binding entry is recorded as “no binding”.
